Measured values reported in US20200190204A1.
No constants are given. Whether binding was seen depends on the method and setting. Some results given as binding are weak or reduced against the parent protein; the word gives no strength.

Protein sequences, listed by entry. Tags and fused reporters are not part of them.
UniProt Q96RJ3: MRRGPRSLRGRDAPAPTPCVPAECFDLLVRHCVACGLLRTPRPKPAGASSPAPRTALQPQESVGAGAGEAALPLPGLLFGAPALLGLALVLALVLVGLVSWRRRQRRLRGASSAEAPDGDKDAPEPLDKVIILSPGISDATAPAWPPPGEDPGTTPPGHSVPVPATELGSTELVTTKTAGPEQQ

What was measured:
[1] = biological target: human BAFF-R on human B-cell lines, primary lymphoma samples and normal B cells (human) (UniProt Q96RJ3); assay: flow cytometry of primary patient samples, Alexa Fluor-488-conjugated chimeric antibody (FITC-A)
[2] = biological target: human BAFF-R on human B-cell lines, primary lymphoma samples and normal B cells (human) (UniProt Q96RJ3); assay: flow cytometry, Alexa Fluor-488-conjugated chimeric antibody, direct staining
[3] = biological target: human BAFF-R on human B-cell lines, primary lymphoma samples and normal B cells (human) (UniProt Q96RJ3); assay: flow cytometry, directly labelled antibody; also NHL primary patient samples (FIG. 1E)
[4] = biological target: human BAFF-R on human B-cell lines, primary lymphoma samples and normal B cells (human) (UniProt Q96RJ3); assay: flow cytometry (FIG. 1D); also bound MCL, DLBCL and FL primary tumor samples
[5] = biological target: human BAFF-R on human B-cell lines, primary lymphoma samples and normal B cells (human) (UniProt Q96RJ3); assay: flow cytometry of primary patient samples, mouse mAb + anti-mouse IgG-APC; high 2 µg and low 0.05 µg per 10^6 cells by the legend
[6] = biological target: human BAFF-R on human B-cell lines, primary lymphoma samples and normal B cells (human) (UniProt Q96RJ3); assay: flow cytometry (FIG. 8)
[7] = biological target: human BAFF-R on human B-cell lines, primary lymphoma samples and normal B cells (human) (UniProt Q96RJ3); assay: flow cytometry on Mino cells, purified mouse mAb; sample names give 0.0016, 0.008, 0.04, 0.2 and 1 (µg/10^6 cells by the legend); anti-mouse IgG APC
[8] = biological target: human BAFF-R on human B-cell lines, primary lymphoma samples and normal B cells (human) (UniProt Q96RJ3); assay: flow cytometry of mouse mAb Clones 55 and 90 (0.05 µg mAb/10^6 cells) on isolated B cells
[9] = biological target: human BAFF-R on human B-cell lines, primary lymphoma samples and normal B cells (human) (UniProt Q96RJ3); assay: flow cytometry on JeKo-1, SU-DHL-6, Raji and RL, anti-mouse IgG-APC
[10] = biological target: human BAFF-R on human B-cell lines, primary lymphoma samples and normal B cells (human) (UniProt Q96RJ3); assay: flow cytometry of supernatants (1/10, 1/50, 1/200) on Mino cells, anti-mouse IgG-APC
[11] = biological target: human BAFF-R on human B-cell lines, primary lymphoma samples and normal B cells (human) (UniProt Q96RJ3); assay: flow cytometry, hybridoma supernatant at 1/10, 1/50 and 1/200, anti-mouse IgG-APC
[12] = biological target: human BAFF-R on human B-cell lines, primary lymphoma samples and normal B cells (human) (UniProt Q96RJ3); assay: flow cytometry, purified mouse mAb at 0.05 µg/10^6 cells, a(m)IgG-APC
[13] = biological target: human BAFF-R on human B-cell lines, primary lymphoma samples and normal B cells (human) (UniProt Q96RJ3); assay: flow cytometry of purified mouse mAb (1 µg/10^6 cells-1.6 ng/10^6 cells) on Mino cells
[14] = biological target: human BAFF-R on human B-cell lines, primary lymphoma samples and normal B cells (human) (UniProt Q96RJ3); assay: flow cytometry, mouse mAb at 0.05 ug/10^6 cells + Anti-(m)IgG-APC
[15] = biological target: human BAFF-R on human B-cell lines, primary lymphoma samples and normal B cells (human) (UniProt Q96RJ3); assay: flow cytometry on MCL, DLBCL and FL patient samples, anti-mouse IgG-APC
[16] = biological target: human BAFF-R on human B-cell lines, primary lymphoma samples and normal B cells (human) (UniProt Q96RJ3); assay: flow cytometry, mouse mAb + Anti-(m)IgG-APC
[17] = biological target: human BAFF-R on human B-cell lines, primary lymphoma samples and normal B cells (human) (UniProt Q96RJ3); assay: flow cytometry (FIG. 10)
[18] = biological target: human BAFF-R on human B-cell lines, primary lymphoma samples and normal B cells (human) (UniProt Q96RJ3); assay: flow cytometry of protein A purified mouse mAb
[19] = biological target: human BAFF-R on human B-cell lines, primary lymphoma samples and normal B cells (human) (UniProt Q96RJ3); assay: flow cytometry, 0.05 µg mAb/10^6 cells

| binding [1] | binding [2] | binding [3] | binding [4] | binding [5] | binding [6] | binding [7] | binding [8] | binding [9] | binding [10] | binding [11] | binding [12] | binding [13] | binding [14] | binding [15] | binding [16] | binding [17] | binding [18] | binding [19] | Binder |
| --- | --- | --- | --- | --- | --- | --- | --- | --- | --- | --- | --- | --- | --- | --- | --- | --- | --- | --- | --- |
| binds | binds | binds | binds | – | – | – | – | – | – | – | – | – | – | – | – | – | – | – | chimeric anti-BAFF-R antibody C55 (antibody, V domains shown) VH: QVTLKESGPGILKPSQTLSLTCSFSGFSLSTSGMGVGWIRQPSGKGLEWLAHIWWDDDKYYNSSLKSHLTISKDTSRNQVFLKITSVDTADTATYYCARSFGYGLDYWGQGTTLTVSS VL: DIQMTQTTSSLSASLGDRVTISCSASQDISNYLNWYQQKPDGTVKLLIYYTSSLHSGVPSRFSGSGSGTDYSLTISSLEPEDIATYYCHQFSELPWTFGGGTKLEIKR |
| – | – | – | – | binds | binds | binds | binds | binds | binds | binds | binds | binds | binds | binds | binds | binds | binds | binds | mouse mAb Clone 55 (hybridoma) (antibody, V domains shown) VH: QVTLKESGPGILKPSQTLSLTCSFSGFSLSTSGMGVGWIRQPSGKGLEWLAHIWWDDDKYYNSSLKSHLTISKDTSRNQVFLKITSVDTADTATYYCARSFGYGLDYWGQGTTLTVSS VL: DIQMTQTTSSLSASLGDRVTISCSASQDISNYLNWYQQKPDGTVKLLIYYTSSLHSGVPSRFSGSGSGTDYSLTISSLEPEDIATYYCHQFSELPWTFGGGTKLEIKR |
